Source: publication doi:10.1101/2022.02.02.478874
No constants are given. Whether binding was seen depends on the method and setting. Some entries that bind do so weakly or less than the wild type. For some assays here: Sequences can lack the tags named with a protein.

T1: Spindly^250-605 (human) (UniProt Q96EA4)
T1 sequence: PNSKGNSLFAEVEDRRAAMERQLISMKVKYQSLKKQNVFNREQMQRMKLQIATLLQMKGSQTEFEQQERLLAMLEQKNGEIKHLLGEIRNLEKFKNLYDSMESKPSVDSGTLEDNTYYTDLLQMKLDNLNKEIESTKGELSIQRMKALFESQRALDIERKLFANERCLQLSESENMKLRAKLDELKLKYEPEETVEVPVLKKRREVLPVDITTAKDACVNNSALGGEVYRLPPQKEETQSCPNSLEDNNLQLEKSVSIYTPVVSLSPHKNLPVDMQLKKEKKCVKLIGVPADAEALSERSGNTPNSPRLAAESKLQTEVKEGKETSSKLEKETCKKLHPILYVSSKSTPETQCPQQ

T2: Spindly^250-275_307-605 (human) (UniProt Q96EA4)
T2 sequence: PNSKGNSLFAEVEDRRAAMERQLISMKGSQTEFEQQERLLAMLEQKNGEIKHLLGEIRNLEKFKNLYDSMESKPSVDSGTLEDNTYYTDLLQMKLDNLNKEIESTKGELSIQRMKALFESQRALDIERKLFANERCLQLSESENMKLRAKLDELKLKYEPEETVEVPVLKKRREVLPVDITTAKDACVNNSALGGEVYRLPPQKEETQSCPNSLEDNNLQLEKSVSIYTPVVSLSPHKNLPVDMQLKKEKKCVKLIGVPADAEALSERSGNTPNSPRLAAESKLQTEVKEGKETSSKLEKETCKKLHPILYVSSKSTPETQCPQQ


target: T1, Spindly^250-605 (human); assay: SEC

Row | binding | Binder
1 | no binding | Spindly^51-250 (domain or fragment, UniProt Q96EA4 51-250) MTESYEQEKYTLQREVELKSRMLESLSCECEAIKQQQKMHLEKLEEQLSRSHGQEVNELKTKIEKLKVELDEARLSEKQLKHQVDHQKELLSCKSEELRVMSERVQESMSSEMLALQIELTEMESMKTTLKEEVNELQYRQEQLELLITNLMRQVDRLKEEKEEREKEAVSYYNALEKARVANQDLQVQLDQALQQALDP

target: Dynactin pointed end (PE) complex (p25, p27, p62, Arp11) (UniProt Q9BTE1); assay: SEC

Row | Binder | binding
2 | ^mChSpindly^Δ26-28 (protein, UniProt Q96EA4 1-605) MEADIITNLRCRLKEAEEERLKAAQQLVESQNELQNQLDKCRNEMMTMTESYEQEKYTLQREVELKSRMLESLSCECEAIKQQQKMHLEKLEEQLSRSHGQEVNELKTKIEKLKVELDEARLSEKQLKHQVDHQKELLSCKSEELRVMSERVQESMSSEMLALQIELTEMESMKTTLKEEVNELQYRQEQLELLITNLMRQVDRLKEEKEEREKEAVSYYNALEKARVANQDLQVQLDQALQQALDPNSKGNSLFAEVEDRRAAMERQLISMKVKYQSLKKQNVFNREQMQRMKLQIATLLQMKGSQTEFEQQERLLAMLEQKNGEIKHLLGEIRNLEKFKNLYDSMESKPSVDSGTLEDNTYYTDLLQMKLDNLNKEIESTKGELSIQRMKALFESQRALDIERKLFANERCLQLSESENMKLRAKLDELKLKYEPEETVEVPVLKKRREVLPVDITTAKDACVNNSALGGEVYRLPPQKEETQSCPNSLEDNNLQLEKSVSIYTPVVSLSPHKNLPVDMQLKKEKKCVKLIGVPADAEALSERSGNTPNSPRLAAESKLQTEVKEGKETSSKLEKETCKKLHPILYVSSKSTPETQCPQQ | no binding
3 | Spindly^1-440 (domain or fragment, UniProt Q96EA4 1-440) MEADIITNLRCRLKEAEEERLKAAQYGLQLVESQNELQNQLDKCRNEMMTMTESYEQEKYTLQREVELKSRMLESLSCECEAIKQQQKMHLEKLEEQLSRSHGQEVNELKTKIEKLKVELDEARLSEKQLKHQVDHQKELLSCKSEELRVMSERVQESMSSEMLALQIELTEMESMKTTLKEEVNELQYRQEQLELLITNLMRQVDRLKEEKEEREKEAVSYYNALEKARVANQDLQVQLDQALQQALDPNSKGNSLFAEVEDRRAAMERQLISMKVKYQSLKKQNVFNREQMQRMKLQIATLLQMKGSQTEFEQQERLLAMLEQKNGEIKHLLGEIRNLEKFKNLYDSMESKPSVDSGTLEDNTYYTDLLQMKLDNLNKEIESTKGELSIQRMKALFESQRALDIERKLFANERCLQLSESENMKLRAKLDELKLKYEP | no binding
4 | GST-Spindly^CC2* (protein, UniProt Q96EA4 1-605) MEADIITNLRCRLKEAEEERLKAAQYGLQLVESQNELQNQLDKCRNEMMTMTESYEQEKYTLQREVELKSRMLESLSCECEAIKQQQKMHLEKLEEQLSRSHGQEVNELKTKIEKLKVELDEARLSEKQLKHQVDHQKELLSCKSEELRVMSERVQESMSSEMLALQIELTEMESMKTTLKEEVNELQYRQEQLELLITNLMRQVDRLKEEKEEREKEAVSYYNALEKARVANQDLQVQLDQALQQALDPNSKGNSLFAEVEDRRAAMERQLISMKVKYQSLKKQNVFNREQMQEMELQIATLLQMKGSQTEFEQQERLLAMLEQKNGEIKHLLGEIRNLEKFKNLYDSMESKPSVDSGTLEDNTYYTDLLQMKLDNLNKEIESTKGELSIQRMKALFESQRALDIERKLFANERCLQLSESENMKLRAKLDELKLKYEPEETVEVPVLKKRREVLPVDITTAKDACVNNSALGGEVYRLPPQKEETQSCPNSLEDNNLQLEKSVSIYTPVVSLSPHKNLPVDMQLKKEKKCVKLIGVPADAEALSERSGNTPNSPRLAAESKLQTEVKEGKETSSKLEKETCKKLHPILYVSSKSTPETQCPQQ | binds
5 | ^mChSpindly^SM*-CC2* (F258A, R295E-K297E) (protein, UniProt Q96EA4 1-605) MEADIITNLRCRLKEAEEERLKAAQYGLQLVESQNELQNQLDKCRNEMMTMTESYEQEKYTLQREVELKSRMLESLSCECEAIKQQQKMHLEKLEEQLSRSHGQEVNELKTKIEKLKVELDEARLSEKQLKHQVDHQKELLSCKSEELRVMSERVQESMSSEMLALQIELTEMESMKTTLKEEVNELQYRQEQLELLITNLMRQVDRLKEEKEEREKEAVSYYNALEKARVANQDLQVQLDQALQQALDPNSKGNSLAAEVEDRRAAMERQLISMKVKYQSLKKQNVFNREQMQEMELQIATLLQMKGSQTEFEQQERLLAMLEQKNGEIKHLLGEIRNLEKFKNLYDSMESKPSVDSGTLEDNTYYTDLLQMKLDNLNKEIESTKGELSIQRMKALFESQRALDIERKLFANERCLQLSESENMKLRAKLDELKLKYEPEETVEVPVLKKRREVLPVDITTAKDACVNNSALGGEVYRLPPQKEETQSCPNSLEDNNLQLEKSVSIYTPVVSLSPHKNLPVDMQLKKEKKCVKLIGVPADAEALSERSGNTPNSPRLAAESKLQTEVKEGKETSSKLEKETCKKLHPILYVSSKSTPETQCPQQ | no binding

The next lines start with the values.

Row | binding | Binder
6 | no binding | Spindly^1-354 (domain or fragment, UniProt Q96EA4 1-354) MEADIITNLRCRLKEAEEERLKAAQYGLQLVESQNELQNQLDKCRNEMMTMTESYEQEKYTLQREVELKSRMLESLSCECEAIKQQQKMHLEKLEEQLSRSHGQEVNELKTKIEKLKVELDEARLSEKQLKHQVDHQKELLSCKSEELRVMSERVQESMSSEMLALQIELTEMESMKTTLKEEVNELQYRQEQLELLITNLMRQVDRLKEEKEEREKEAVSYYNALEKARVANQDLQVQLDQALQQALDPNSKGNSLFAEVEDRRAAMERQLISMKVKYQSLKKQNVFNREQMQRMKLQIATLLQMKGSQTEFEQQERLLAMLEQKNGEIKHLLGEIRNLEKFKNLYDSMESKP
7 | no binding | Spindly^1-250 (domain or fragment, UniProt Q96EA4 1-250) MEADIITNLRCRLKEAEEERLKAAQYGLQLVESQNELQNQLDKCRNEMMTMTESYEQEKYTLQREVELKSRMLESLSCECEAIKQQQKMHLEKLEEQLSRSHGQEVNELKTKIEKLKVELDEARLSEKQLKHQVDHQKELLSCKSEELRVMSERVQESMSSEMLALQIELTEMESMKTTLKEEVNELQYRQEQLELLITNLMRQVDRLKEEKEEREKEAVSYYNALEKARVANQDLQVQLDQALQQALDP
8 | no binding | ^mChSpindly^22-605 (domain or fragment, UniProt Q96EA4 22-605) KAAQYGLQLVESQNELQNQLDKCRNEMMTMTESYEQEKYTLQREVELKSRMLESLSCECEAIKQQQKMHLEKLEEQLSRSHGQEVNELKTKIEKLKVELDEARLSEKQLKHQVDHQKELLSCKSEELRVMSERVQESMSSEMLALQIELTEMESMKTTLKEEVNELQYRQEQLELLITNLMRQVDRLKEEKEEREKEAVSYYNALEKARVANQDLQVQLDQALQQALDPNSKGNSLFAEVEDRRAAMERQLISMKVKYQSLKKQNVFNREQMQRMKLQIATLLQMKGSQTEFEQQERLLAMLEQKNGEIKHLLGEIRNLEKFKNLYDSMESKPSVDSGTLEDNTYYTDLLQMKLDNLNKEIESTKGELSIQRMKALFESQRALDIERKLFANERCLQLSESENMKLRAKLDELKLKYEPEETVEVPVLKKRREVLPVDITTAKDACVNNSALGGEVYRLPPQKEETQSCPNSLEDNNLQLEKSVSIYTPVVSLSPHKNLPVDMQLKKEKKCVKLIGVPADAEALSERSGNTPNSPRLAAESKLQTEVKEGKETSSKLEKETCKKLHPILYVSSKSTPETQCPQQ
9 | no binding | GST-Spindly^FL (protein, UniProt Q96EA4 1-605) MEADIITNLRCRLKEAEEERLKAAQYGLQLVESQNELQNQLDKCRNEMMTMTESYEQEKYTLQREVELKSRMLESLSCECEAIKQQQKMHLEKLEEQLSRSHGQEVNELKTKIEKLKVELDEARLSEKQLKHQVDHQKELLSCKSEELRVMSERVQESMSSEMLALQIELTEMESMKTTLKEEVNELQYRQEQLELLITNLMRQVDRLKEEKEEREKEAVSYYNALEKARVANQDLQVQLDQALQQALDPNSKGNSLFAEVEDRRAAMERQLISMKVKYQSLKKQNVFNREQMQRMKLQIATLLQMKGSQTEFEQQERLLAMLEQKNGEIKHLLGEIRNLEKFKNLYDSMESKPSVDSGTLEDNTYYTDLLQMKLDNLNKEIESTKGELSIQRMKALFESQRALDIERKLFANERCLQLSESENMKLRAKLDELKLKYEPEETVEVPVLKKRREVLPVDITTAKDACVNNSALGGEVYRLPPQKEETQSCPNSLEDNNLQLEKSVSIYTPVVSLSPHKNLPVDMQLKKEKKCVKLIGVPADAEALSERSGNTPNSPRLAAESKLQTEVKEGKETSSKLEKETCKKLHPILYVSSKSTPETQCPQQ
10 | no binding | mCherry-tagged full-length Spindly (^mChSpindly^FL) (protein, UniProt Q96EA4 1-605) MEADIITNLRCRLKEAEEERLKAAQYGLQLVESQNELQNQLDKCRNEMMTMTESYEQEKYTLQREVELKSRMLESLSCECEAIKQQQKMHLEKLEEQLSRSHGQEVNELKTKIEKLKVELDEARLSEKQLKHQVDHQKELLSCKSEELRVMSERVQESMSSEMLALQIELTEMESMKTTLKEEVNELQYRQEQLELLITNLMRQVDRLKEEKEEREKEAVSYYNALEKARVANQDLQVQLDQALQQALDPNSKGNSLFAEVEDRRAAMERQLISMKVKYQSLKKQNVFNREQMQRMKLQIATLLQMKGSQTEFEQQERLLAMLEQKNGEIKHLLGEIRNLEKFKNLYDSMESKPSVDSGTLEDNTYYTDLLQMKLDNLNKEIESTKGELSIQRMKALFESQRALDIERKLFANERCLQLSESENMKLRAKLDELKLKYEPEETVEVPVLKKRREVLPVDITTAKDACVNNSALGGEVYRLPPQKEETQSCPNSLEDNNLQLEKSVSIYTPVVSLSPHKNLPVDMQLKKEKKCVKLIGVPADAEALSERSGNTPNSPRLAAESKLQTEVKEGKETSSKLEKETCKKLHPILYVSSKSTPETQCPQQ

target: T2, Spindly^250-275_307-605 (human); assay: SEC

Row | binding | Binder
11 | no binding | Spindly^1-250 (domain or fragment, UniProt Q96EA4 1-250) MEADIITNLRCRLKEAEEERLKAAQYGLQLVESQNELQNQLDKCRNEMMTMTESYEQEKYTLQREVELKSRMLESLSCECEAIKQQQKMHLEKLEEQLSRSHGQEVNELKTKIEKLKVELDEARLSEKQLKHQVDHQKELLSCKSEELRVMSERVQESMSSEMLALQIELTEMESMKTTLKEEVNELQYRQEQLELLITNLMRQVDRLKEEKEEREKEAVSYYNALEKARVANQDLQVQLDQALQQALDP
